Where a chain is given by its changes, count along the chain named. In names and notes the source's numbering stands. Results are given in words; binding and its absence hold for the method and conditions named. For part of these data: In cells and extracts the contact can be indirect. Some entries that bind do so weakly or less than the wild type. Tags and fused reporters may be left off the sequences shown. Values belong to the binder of their own block, whether it stands above or below them.
Tests used:
GST-EB1, Q15691 = target: T1, GST-EB1, Q15691; test: pull-down; GST-EB1 as affinity matrix to isolate GFP fusions from 293T cell extracts; anti-GFP blotting and Coomassie Brilliant Blue staining; only the target purified; settings: remark: other sources report otherwise
T1 chain: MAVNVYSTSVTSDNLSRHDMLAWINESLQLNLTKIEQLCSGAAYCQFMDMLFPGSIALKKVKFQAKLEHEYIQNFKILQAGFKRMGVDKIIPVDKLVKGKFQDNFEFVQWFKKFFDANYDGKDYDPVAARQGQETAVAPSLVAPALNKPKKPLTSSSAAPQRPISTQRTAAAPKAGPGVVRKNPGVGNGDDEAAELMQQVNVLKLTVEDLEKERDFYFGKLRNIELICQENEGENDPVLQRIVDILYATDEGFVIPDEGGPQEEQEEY

By UniProt entry, the sequences of proteins in these tests, tags left out. Where a name states a change or a piece, a line headed by the entry shows the natural chain unless it says otherwise.
UniProt P68363: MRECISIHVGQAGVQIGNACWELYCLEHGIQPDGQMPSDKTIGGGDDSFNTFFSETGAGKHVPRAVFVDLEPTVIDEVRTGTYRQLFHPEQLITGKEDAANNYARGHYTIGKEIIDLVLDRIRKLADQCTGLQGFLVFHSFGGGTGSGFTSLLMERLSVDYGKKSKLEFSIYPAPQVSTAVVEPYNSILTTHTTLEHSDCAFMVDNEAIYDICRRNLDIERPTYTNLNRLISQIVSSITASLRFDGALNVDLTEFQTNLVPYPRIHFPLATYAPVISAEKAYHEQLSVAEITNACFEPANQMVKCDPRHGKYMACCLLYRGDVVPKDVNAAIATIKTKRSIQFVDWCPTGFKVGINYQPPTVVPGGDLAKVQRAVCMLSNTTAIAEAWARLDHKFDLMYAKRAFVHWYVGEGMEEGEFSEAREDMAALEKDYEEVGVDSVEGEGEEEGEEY

[1] = target: Taxol-stabilized microtubules (UniProt P68363); test: co-sedimentation; 1 uM purified MCAK-His proteins with 0-10 uM Taxol-stabilized MTs in BRB80 (80 mM PIPES pH 6.8, 1 mM MgCl2, 1 mM EGTA), 10 min at 25 C, 10 min at 80,000 rpm; supernatant and pellet on SDS-PAGE, densitometry; both purified
GST-EB1 = GST-EB1 (UniProt Q15691); test: pull-down; GST-EB1 as affinity matrix to isolate GFP fusions from 293T cell extracts; anti-GFP blotting and Coomassie Brilliant Blue staining; only the target purified

binding (GST-EB1, Q15691): binds
B1: GFP-tagged full-length MCAK (wild type), Q99661 1-725 (protein)
chain: MAMDSSLQARLFPGLAIKIQRSNGLIHSANVRTVNLEKSCVSVEWAEGGATKGKEIDFDDVAAINPELLQLLPLHPKDNLPLQENVTIQKQKRRSVNSKIPAPKESLRSRSTRMSTVSELRITAQENDMEVELPAAANSRKQFSVPPAPTRPSCPAVAEIPLRMVSEEMEEQVHSIRGSSSANPVNSVRRKSCLVKEVEKMKNKREEKKAQNSEMRMKRAQEYDSSFPNWEFARMIKEFRATLECHPLTMTDPIEEHRICVCVRKRPLNKQELAKKEIDVISIPSKCLLLVHEPKLKVDLTKYLENQAFCFDFAFDETASNEVVYRFTARPLVQTIFEGGKATCFAYGQTGSGKTHTMGGDLSGKAQNASKGIYAMASRDVFLLKNQPCYRKLGLEVYVTFFEIYNGKLFDLLNKKAKLRVLEDGKQQVQVVGLQEHLVNSADDVIKMIDMGSACRTSGQTFANSNSSRSHACFQIILRAKGRMHGKFSLVDLAGNERGADTSSADRQTRMEGAEINKSLLALKECIRALGQNKAHTPFRESKLTQVLRDSFIGENSRTCMIATISPGISSCEYTLNTLRYADRVKELSPHSGPSGEQLIQMETEEMEACSNGALIPGNLSKEEEELSSQMSSFNEAMTQIRELEEKAMEELKEIIQQGPDWLELSEMTEQPDYDLETFVNKAESALAQQAKHFSALRDVIKALRLAMQLEEQASRQISSKKRPQ

binding [1]: binds
B2: MCAK^S715E-His (protein, UniProt Q99661 1-725)
chain: B1 chain with S715E

binding (GST-EB1): binds
B3: GFP-MCAK^S715A (protein, UniProt Q99661 1-725)
chain: B1 chain with S715A

binding [1]: binds
B4: MCAK^S715A-His (protein, UniProt Q99661 1-725)
chain: B1 chain with S715A

binding [1]: binds
B5: MCAK^WT-His (protein, UniProt Q99661 1-725)
chain: B1 chain

binding (GST-EB1): binds
B6: GFP-MCAK^S715E (protein, UniProt Q99661 1-725)
chain: B1 chain with S715E

Reference: article PMC4513279
